The target of the series is T1, Slx9 (6xHis-Slx9) (Saccharomyces cerevisiae) (UniProt P53251).
T1 sequence (looked up): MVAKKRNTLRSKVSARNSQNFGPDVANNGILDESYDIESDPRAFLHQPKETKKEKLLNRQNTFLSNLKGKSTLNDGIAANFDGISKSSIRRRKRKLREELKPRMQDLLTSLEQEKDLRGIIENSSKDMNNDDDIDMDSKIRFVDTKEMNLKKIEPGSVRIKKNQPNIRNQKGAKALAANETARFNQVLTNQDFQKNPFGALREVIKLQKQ
In words: MST. Particulars: Kd not in material; MST: 25 nM Cy5-DNA, NaCl (buffer partly given), 0.5% BSA, 0.05% Tween-20, 24 C; recombinant protein; residues 1-210; protein details: 6xHis (pET28a EcoRI/NotI, about 30 kDa); label: 5' 32P (filter binding), 5' Cy5 (MST); single-stranded ….

Weaker means in comparison with the reference protein, sequence or condition of that experiment. Protein sequences can lack the tags named with them.

Turning to “AAAAAAAAAAGCGTACGGTGCGTAATAACGCAAGCTATCGCG [G4mut (mut-G4IX)]”, the binding result is “binds more weakly”.
